# Screening data

The results are deposited in PubChem (AID912; NCATS, 2007).

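A cell-based FRET test of anthrax lethal toxin entry, tracked through the 460 nm emission signal; the cell line is not named here. Each compound was tested as a concentration series from about 0.0005 to 40 µM. The number is the fitted AC50 of the 460 nm signal alone; lower values mean a more potent effect. A falling signal goes with compounds filed as inhibitors or cytotoxic, a rising one with activators or fluorescent compounds (inferred from the filed classes).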

Values are in µM. Common to all entries: measured here: 460 nm channel. This is a side read-out of the assay, for part of the compounds, not drawn at random. A potency from a partial, single-point or poor curve is only a rough figure. The first word of each remark tells which way the curve ran; it can be opposite to the aim of the assay.

compound,AC50 (µM),curve as filed
Cc1ccccc1S(=O)(=O)Cc1ccc(C(=O)N2CCN(c3cccc(C)c3C)CC2)o1,12.59,"falling, partial curve"
CC1Cc2ccccc2N1C(=O)CSc1nnc2n1C(C)(C)Cc1ccccc1-2 (stereo not shown),25.12,"rising, single point"
Cc1ccc2cccc(S(=O)(=O)n3nc(C)cc3C)c2n1,0.3162,"falling, partial curve, poor fit"
COc1cccc(Cn2c(=O)c(-c3cc(F)cc(F)c3)nc3cncnc32)c1,10,"rising, partial curve"
CN(C)c1ccc(/C=C/c2cc[n+]([O-])cc2)cc1,3.981,"falling, partial curve"
Cc1ccc(C(=O)Nc2ccc3c(c2)OCO3)o1,7.943,"falling, partial curve, poor fit"
Cc1c(CNCc2cccs2)c(C(=O)O)c(C)n1Cc1ccccc1,5.012,"rising, single point"
N#Cc1cccc(-c2nc(NCc3cccs3)c3ccccc3n2)c1,12.59,"falling, partial curve"
CC(C)Cn1nc(NC(=O)C2CCCO2)c2cc3ccccc3nc21 (stereo not shown),10,"rising, partial curve"
Brc1ccc(-c2noc(CCc3ccccc3)n2)o1,12.59,"falling, partial curve"
Cn1c(=O)[nH]c(=O)c2c1nc(NCc1ccccc1)n2CCCc1ccccc1,10,"rising, partial curve"
C=CCOC(=O)c1[nH]c2c(c1C)C(=O)CC(c1ccco1)C2 (stereo not shown),0.3981,"falling, full curve"
O=C(Nc1c(F)cc(F)cc1Br)c1cc(-c2ccc(O)cc2)on1,10,"falling, partial curve"
Cc1ccccc1-c1nccc(-n2ccnc2)n1,19.95,"falling, single point"
CC(=O)N1CCN(c2ccccc2NC(=O)COc2cc(C)ccc2C(C)C)CC1,15.85,"falling, single point"
O=C1CC(N(O)c2ccccc2)C(=O)N1Cc1ccccc1 (stereo not shown),5.012,"rising, single point"
CN(C)S(=O)(=O)c1ccc(C(=O)Nc2nc(-c3cccs3)cs2)cc1,5.012,"falling, single point"
O=Nc1c(-c2c(O)[nH]c3ccccc23)[nH]c2ccccc12,10,"falling, partial curve"
CCCOC(=O)Nc1ccc(N2CCCCC2)cc1,31.62,"falling, single point"
Cc1ccc(C(C)C)c(OCc2nc(-c3nonc3N)no2)c1,3.162,"falling, full curve"
Cc1cccc(-n2c(C)nc3cc(C(=O)N4CCC5(CC4)OCCO5)ccc32)c1,0.01995,"falling, full curve, poor fit"
CCN1C(=O)[C@@H]2[C@H]3C(=CC[C@H]2C1=O)C(=O)[C@H]1OC1[C@H]3O (stereo partly shown),0.7943,"rising, partial curve"
COCCCN1C(=O)c2[nH]nc(-c3ccccc3O)c2C1c1cccc(Cl)c1 (stereo not shown),3.981,"rising, full curve"
Cc1[nH]nc2c1C(c1ccc(F)cc1)C(C#N)=C(N)O2 (stereo not shown),31.62,"rising, single point"
COC(=O)CSc1nnc2n(C3CCCCC3)c(=O)c3c4c(sc3n12)CCCC4,3.162,"rising, single point"
O=C(Nc1cc(C(=O)Nc2ccc(S(=O)(=O)O)cc2S(=O)(=O)O)cc(C(=O)Nc2ccc(S(=O)(=O)O)cc2S(=O)(=O)O)c1)Nc1cc(C(=O)Nc2ccc(S(=O)(=O)O)cc2S(=O)(=O)O)cc(C(=O)Nc2ccc(S(=O)(=O)O)cc2S(=O)(=O)O)c1,12.59,"falling, partial curve"
CC(C)(C)CC(=O)N1CCC(c2nc3c(nnn3Cc3c(F)cccc3Cl)c(=O)[nH]2)CC1,2.512,"rising, partial curve"
COc1ccc(N2C(=O)CC(=O)NC2=O)cc1,5.012,"rising, single point"
CN1CCN(C2=Cc3ccccc3Oc3ccc(Cl)cc32)CC1,6.31,"falling, full curve, poor fit"
O=C(CSc1nnc(-c2cccnc2)n1Cc1ccco1)Nc1nc(-c2ccc(F)cc2)cs1,10,"falling, partial curve"
C[C@@]12CC[C@H]3[C@@H](CCC4=CC(=O)CC[C@]43C)[C@H]1CC[C@H]2C(=O)CO,0.001585,"falling, full curve, poor fit"
COc1c2ccoc2nc2c(OC)c(OC[C@H](O)C(C)(C)O)ccc12,15.85,"falling, partial curve"
Cc1ccc(C(=O)CSC2=C(C#N)C(c3ccco3)CC(=O)N2)c(C)c1 (stereo not shown),15.85,"falling, partial curve, poor fit"
Cc1ccc(Cn2ccc(NC(=O)C3C4CCC(C4)C3C(=O)O)n2)cc1 (stereo not shown),5.012,"rising, partial curve"
CCc1c(C)nc(N)n2c(SCC(=O)Nc3ccccc3OC)nnc12,0.631,"rising, full curve"
Cn1c(=O)c2[nH]c(CCCCc3nc4c([nH]3)c(=O)n(C)c(=S)n4C)nc2n(C)c1=S,3.981,"rising, single point"
CCN(CC)CCn1c(OC)cc(=O)[nH]c1=O,0.1,"falling, partial curve, poor fit"
O=C(Nc1cccc(F)c1)N1CCC2(CC1)CCN(C(=O)c1ccncc1)CC2,31.62,"rising, single point"
COc1ccc2[nH]cc(CCNc3ncnc4ccc(-c5cccc(C#N)c5)cc34)c2c1,10,"falling, partial curve"
O=C(c1ccncc1)N1CCC[C@@]2(CCN(c3cccc(-c4ccccc4)c3)C2)C1,1.995,"rising, full curve, poor fit"
Cc1cnc(CNc2ncncc2-c2ccc3c(c2)OCO3)cn1,2.512,"rising, partial curve"
COc1ccc(C)cc1NC(=O)CSc1nnc(-c2ccccn2)n1Cc1ccco1,0.01585,"falling, full curve, poor fit"
Cc1ccc(-c2c3c(=O)n(C)c(=O)n(C)c3cn2N2CCOCC2)cc1,7.943,"rising, partial curve"
CN(C)c1ccc(NC(=O)CSCc2nc3c(nnn3Cc3ccc(F)cc3)c(=O)[nH]2)cc1,12.59,"rising, partial curve"
O=C(O)c1[nH]c(=O)[nH]c(=O)c1CN1CCCCC1,0.1995,"falling, full curve"
COc1ccccc1N1CCN(C(=O)c2ccc(CS(=O)(=O)c3ccccc3OC)o2)CC1,25.12,"rising, single point"
CCCC(C)(COC(N)=O)COC(=O)NC(C)C (stereo not shown),31.62,"falling, single point"
Cc1cc(NC(=O)CCS(=O)(=O)c2nc(-c3ccccc3)cc(C(F)(F)F)n2)no1,5.012,"falling, partial curve"
CC1CCCN(C(=O)Cc2ccc(F)cc2)C1 (stereo not shown),1,"rising, partial curve"
c1ccc(-c2ccc(N3CC4(CCNCC4)C3)cc2)cc1,10,"falling, partial curve"
N[C@@H](CSS(=O)(=O)O)C(=O)O,31.62,"falling, single point"
CN1CCN(c2ccc(N)c(N3CCN(C)CC3)c2)CC1,31.62,"falling, single point"
CC1=C(C(=O)OC(C)C)C(c2ccncc2)n2ncnc2N1 (stereo not shown),10,"falling, single point"
Oc1ccc2ccccc2c1CN1CCN(c2ccccc2F)CC1,15.85,"rising, single point"